Measured values as given in patent US9757408B2 (Hayashibara Co., Ltd., priority 2010, dated 2017).
Some of these results come from one statement about several compounds together. For at least one compound, name, drawing or mass did not settle the structure.

Test system: BALB/c mice
Assay: Acute toxicity test, intraperitoneal (Experiment 20)
Details: 2 g/100 mL PBS at 1 mL/head, 24 hours
Description: As a control, only PBS was intraperitoneally administered to 10 BALB/c mice (6-week-old, female, average weight of 20 g, commercialized by Charles River Laboratories Japan Inc., Tokyo, Japan) at a dose of 1 mL/head, followed by observing the course of the mice for 24 hours.

Nc1c2ncn([C@@H]3O[C@H](COP(=O)(O)O)[C@@H](O)[C@H]3O)c2nc[n+]1[O-] [adenosine N1-oxide 5′-monophosphate] was tested, and the LD50 was ≥ 1,000 mg/kg body weight.
